Experimental findings from publication PMC7199855, “GRAF2, WDR44, and MICAL1 mediate Rab8/10/11–dependent export of E-cadherin, MMP14, and CFTR ΔF508” (The Journal of Cell Biology, 2020) are described below.

One experiment concerns the target T1, GFP-MICAL1 (human) (UniProt Q8TDZ2).
T1 sequence: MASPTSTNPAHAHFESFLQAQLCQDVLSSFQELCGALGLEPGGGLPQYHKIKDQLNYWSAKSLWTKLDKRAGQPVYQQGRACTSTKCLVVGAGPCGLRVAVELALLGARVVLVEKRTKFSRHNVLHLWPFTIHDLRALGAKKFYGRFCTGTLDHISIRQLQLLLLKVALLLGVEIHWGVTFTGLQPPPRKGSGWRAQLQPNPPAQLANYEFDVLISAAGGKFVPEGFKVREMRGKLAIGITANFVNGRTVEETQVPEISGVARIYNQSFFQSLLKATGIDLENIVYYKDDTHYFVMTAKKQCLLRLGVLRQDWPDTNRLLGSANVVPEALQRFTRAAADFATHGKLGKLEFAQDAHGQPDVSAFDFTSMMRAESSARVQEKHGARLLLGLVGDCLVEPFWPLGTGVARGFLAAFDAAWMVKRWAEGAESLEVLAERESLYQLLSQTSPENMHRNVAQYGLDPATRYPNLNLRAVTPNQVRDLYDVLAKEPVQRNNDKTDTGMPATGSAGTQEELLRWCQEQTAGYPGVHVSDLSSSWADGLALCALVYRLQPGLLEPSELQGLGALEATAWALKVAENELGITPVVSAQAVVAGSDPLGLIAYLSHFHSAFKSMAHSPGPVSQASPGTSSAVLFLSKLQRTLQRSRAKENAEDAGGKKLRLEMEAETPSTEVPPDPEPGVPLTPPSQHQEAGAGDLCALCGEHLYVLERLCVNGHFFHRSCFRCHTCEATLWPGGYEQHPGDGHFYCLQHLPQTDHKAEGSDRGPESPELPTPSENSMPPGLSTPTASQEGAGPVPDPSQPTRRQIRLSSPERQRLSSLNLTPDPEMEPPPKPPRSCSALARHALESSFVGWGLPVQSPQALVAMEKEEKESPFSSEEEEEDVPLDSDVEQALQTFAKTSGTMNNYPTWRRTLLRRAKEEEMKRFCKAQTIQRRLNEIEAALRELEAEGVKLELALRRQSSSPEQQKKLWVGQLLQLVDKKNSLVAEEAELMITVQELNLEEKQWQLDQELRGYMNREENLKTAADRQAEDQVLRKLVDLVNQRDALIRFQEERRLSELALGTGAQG
As to the kind of experiment: co-IP; transfected 293T, IP with α-GFP and Protein G Sepharose; 20 mM Hepes pH 7.4, 150 mM NaCl, 2 mM EDTA, 1% IGEPAL CA-630; Western blot.

Another experiment concerns the target T2, GFP-WDR44 (human) (UniProt Q5JSH3).
T2 sequence: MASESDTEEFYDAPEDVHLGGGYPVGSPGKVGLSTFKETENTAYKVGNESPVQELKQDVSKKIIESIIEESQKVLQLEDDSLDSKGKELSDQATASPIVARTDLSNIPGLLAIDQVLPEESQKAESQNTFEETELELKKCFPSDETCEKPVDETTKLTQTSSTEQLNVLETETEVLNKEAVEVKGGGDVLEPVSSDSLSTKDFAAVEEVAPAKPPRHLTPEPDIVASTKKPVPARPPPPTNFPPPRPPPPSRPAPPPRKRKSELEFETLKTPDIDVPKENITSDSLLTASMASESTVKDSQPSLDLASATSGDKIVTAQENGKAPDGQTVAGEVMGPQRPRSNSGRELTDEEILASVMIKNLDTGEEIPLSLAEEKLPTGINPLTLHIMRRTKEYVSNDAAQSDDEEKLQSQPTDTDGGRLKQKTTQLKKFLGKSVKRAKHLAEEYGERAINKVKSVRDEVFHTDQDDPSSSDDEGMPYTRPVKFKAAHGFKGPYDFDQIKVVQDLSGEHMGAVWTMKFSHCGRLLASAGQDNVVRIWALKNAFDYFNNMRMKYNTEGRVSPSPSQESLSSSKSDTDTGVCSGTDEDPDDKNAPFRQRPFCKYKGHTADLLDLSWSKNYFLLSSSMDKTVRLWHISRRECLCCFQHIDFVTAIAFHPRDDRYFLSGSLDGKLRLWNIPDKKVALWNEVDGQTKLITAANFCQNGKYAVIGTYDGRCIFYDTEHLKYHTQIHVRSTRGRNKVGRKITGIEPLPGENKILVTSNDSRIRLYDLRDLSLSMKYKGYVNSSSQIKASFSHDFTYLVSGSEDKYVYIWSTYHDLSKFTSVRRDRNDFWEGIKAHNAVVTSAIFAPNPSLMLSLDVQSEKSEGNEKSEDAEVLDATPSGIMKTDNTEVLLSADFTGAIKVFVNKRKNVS
Described as above.

Results are given in words; binding and its absence hold for the method and conditions named. In cells and extracts the contact can be indirect. Some results given as binding are weak or reduced against the parent protein; the word gives no strength. Tags and fused reporters may be left off the sequences shown.

B1: GRAF1b-myc (protein, UniProt Q9UNA1-2 1-759)
chain: MGLPALEFSDCCLDSPHFRETLKSHEAELDKTNKFIKELIKDGKSLISALKNLSSAKRKFADSLNEFKFQCIGDAETDDEMCIARSLQEFATVLRNLEDERIRMIENASEVLITPLEKFRKEQIGAAKEAKKKYDKETEKYCGILEKHLNLSSKKKESQLQEADSQVDLVRQHFYEVSLEYVFKVQEVQERKMFEFVEPLLAFLQGLFTFYHHGYELAKDFGDFKTQLTISIQNTRNRFEGTRSEVESLMKKMKENPLEHKTISPYTMEGYLYVQEKRHFGTSWVKHYCTYQRDSKQITMVPFDQKSGGKGGEDESVILKSCTRRKTDSIEKRFCFDVEAVDRPGVITMQALSEEDRRLWMEAMDGREPVYNSNKDSQSEGTAQLDSIGFSIIRKCIHAVETRGINEQGLYRIVGVNSRVQKLLSVLMDPKTASETETDICAEWEIKTITSALKTYLRMLPGPLMMYQFQRSFIKAAKLENQESRVSEIHSLVHRLPEKNRQMLQLLMNHLANVANNHKQNLMTVANLGVVFGPTLLRPQEETVAAIMDIKFQNIVIEILIENHEKIFNTVPDMPLTNAQLHLSRKKSSDSKPPSCSERPLTLFHTVQSTEKQEQRNSIINSSLESVSSNPNSILNSSSSLQPNMNSSDPDLAVVKPTRPNSLPPNPSPTSPLSPSWPMFSAPSSPMPTSSTSSDSSPVSTPFRKAKALYACKAEHDSELSFTAGTVFDNVHPSQEPGWLEGTLNGKTGLIPENYVEFL
As to B1, the binding entry with GFP-MICAL1 (human) and with GFP-WDR44 (human) was “binds” throughout.
